Results taken from patent US20040110802A1, “Antibacterial benzoic acid derivatives” (priority 2002, published 2004).
In brackets after ≈: the same amount, converted by molar mass.

Tested on: SAUR 9218
Test: MIC Test Method, standard agar dilution
Format: cell-based
Conditions: Mueller Hinton agar, incubated overnight at 35° C., lowest concentration that inhibits visible growth
Experimental: The in vitro MiCs of test compounds were determined by a standard agar dilution method. A stock drug solution of each analog was prepared in the preferred solvent, usually DMSO:H2O (1:3). Serial 2-fold dilutions of each sample are made using 1.0 ml aliquots of sterile distil]ed water. To each 1.0 ml aliquot of drug was added 9 ml of molten Mueller Hinton agar medium. The drug-supplemented agar was mixed, poured into 15×100 mm petri dishes, and allowed to solidify and dry prior to inoculation.
Vials of each of the test organisms are maintained frozen in the vapor phase of a liquid nitrogen freezer. Test cultures are grown overnight at 35° C. on the medium appropriate for the organism. Colonies are harvested with a sterile swab, and cell suspensions are prepared in Trypticase Soy broth (TSB) to equal the turbidity of a 0.5 McFamland standard. A 1:20 dilution of each suspension was made in TSB. The plates containing the drug supplemented agar are inoculated with a 0.001 ml drop of the cell suspension using a Steers replicator, yielding approximately 10^4 to 10^5 cells per spot. The plates are incubated overnight at 35° C.
Following incubation the Minimum Inhibitory Concentration (MIC μg/ml), the lowest concentration of drug that inhibits visible growth of the organism, was read and recorded.

MIC: 1 µg/mL (≈ 2.73 µM)
SMILES: N#Cc1ccc(NC(=O)c2noc3ccc(NCCO)cc23)c(C(=O)O)c1
